Source: the supplement of paper PMC10338343
± gives the standard deviation. This is one part of the list. The uncertainty is large for many entries.

system: EfPiwi piRISC loaded with L1MC piRNA (26 nt); test: pre-steady-state target cleavage rate (min^-1); guide: L1MC piRNA 5'p-UAACUAAAUACUAUGCAAGCUGUAGG; MIWI and MILI are mouse PIWI proteins and EfPiwi is from a freshwater sponge; tags in brackets are library labels; higher = faster piRNA-guided slicing of the target; conditions: auxiliary factor: 500 nM Ephydatia muelleri Gtsf1
Procedure, shortened: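 Active affinity-purified piRISC carrying one synthetic guide (1 nM) was mixed with a transcribed, DNA-blocked target RNA library […] in HEPES–potassium acetate buffer at 33 °C for 0–8 or 0–960 min, with or without 500 nM GTSF1 partner protein. Uncleaved targets were then sequenced and normalised to depth and to weakly complementary targets. Three trials were pooled, and k3 was capped at 0.0001 min^-1. A burst-and-steady-state fit was applied to obtain the pre-steady-state cleavage rate.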

Sequence	pre-steady-state target cleavage rate
UCCUGGAUGUCGAACGUUAGUAUUUAGUGUA	0.000525 ± 0.014
UCCUGGAUGUCGAACGUUUGUAUUUAGUAA	0.000124 ± 0.022
UCCUGGAUCAGCUUGCUAAGUAUUUAGUUA	0.00332 ± 0.0037
UCCUCCUACUGCUUGCAUAGUAUAUAGUUA	0.0123 ± 0.0054
UCCUGGUACAGCUUGCAUAGUAUUUAUUUA	0.00732 ± 0.0063
UCCUGGAUGUCGAACGAUAGUAUUGAGUUA	0.000129 ± 0.05
UCCUCCUACAGCAUGCAUAGUAUUUAGUAA	0.00521 ± 0.0023
UCCUCCUAGUGCUUGCAUAGUAUUUAGUUA	0.00928 ± 0.0031
UCCUGGAACAACUUGCAUAGUAUUUAGUUA	0.0809 ± 0.023

same assay, conditions: auxiliary factor: none (no Gtsf1)

Sequence	pre-steady-state target cleavage rate
UCCUGGAUGAGGUUGCAUAGUAUUUAGUUA	0.00333 ± 0.0049
UCCUGGAUGACCUUGGAUAGUAUUUAGUUA	0.000236 ± 0.037
UCCUGCUACAGCUUGCAUUGUAUUUACUUA	0.000339 ± 0.017
UCCUGGUACAGCCUUGCAUAGUAUUUAGUUA	0.00039 ± 0.034
UCCUGGAUGUCGAUGGAUAGAAUUUAGUUA	< 0.0001
UCCUGGAUGUGCUUUCAUAGUAUUUAGUUA	0.0005 ± 0.017
UCCUGGAUGUCGAACGUUAAGUAUUUAGUUA	0.000176 ± 0.039

Taken from the listing for reference:
Sequence	pre-steady-state target cleavage rate
UCCUGGAUGACCUUGGAUAGUAUUUAGUUA	0.000236 ± 0.037
UCCUGCUACAGCUUGCAUUGUAUUUACUUA	0.000339 ± 0.017
